Measured values from publication PMC11527346.
No constants are given. Whether binding was seen depends on the method and setting. For some assays here: In cells and extracts the contact can be indirect. Some results given as binding are weak or reduced against the parent protein; the word gives no strength.

Chains of the proteins cited; added tags and fusions are not shown.
UniProt P15531: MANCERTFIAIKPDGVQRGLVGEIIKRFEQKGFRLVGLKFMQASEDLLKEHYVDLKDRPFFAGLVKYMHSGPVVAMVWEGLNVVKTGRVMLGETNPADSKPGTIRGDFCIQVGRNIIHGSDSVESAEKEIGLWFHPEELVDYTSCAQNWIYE
UniProt Q04207: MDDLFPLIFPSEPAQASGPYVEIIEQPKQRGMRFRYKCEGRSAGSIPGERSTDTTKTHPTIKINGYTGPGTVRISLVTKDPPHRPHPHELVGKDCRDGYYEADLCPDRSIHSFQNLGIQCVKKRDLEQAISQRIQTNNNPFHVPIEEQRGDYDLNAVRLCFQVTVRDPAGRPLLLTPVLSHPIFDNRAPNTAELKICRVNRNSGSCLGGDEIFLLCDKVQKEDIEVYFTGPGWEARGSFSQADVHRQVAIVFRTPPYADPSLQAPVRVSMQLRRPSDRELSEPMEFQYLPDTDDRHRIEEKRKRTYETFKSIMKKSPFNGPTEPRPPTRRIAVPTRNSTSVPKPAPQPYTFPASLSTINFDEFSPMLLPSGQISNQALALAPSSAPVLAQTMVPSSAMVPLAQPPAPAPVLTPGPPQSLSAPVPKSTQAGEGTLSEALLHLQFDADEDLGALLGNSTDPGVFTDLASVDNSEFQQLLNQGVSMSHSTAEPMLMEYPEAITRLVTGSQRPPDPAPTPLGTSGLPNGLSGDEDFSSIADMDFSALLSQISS

Key:
FLAG-tagged NME1 = FLAG-tagged NME1 (UniProt P15531); test: co-IP; anti-FLAG M2 beads on whole cell lysate of HEK293T cotransfected with FLAG-NME1 (or empty vector) and HA-RelA; 25 mM Tris-HCl pH 7.5, 150 mM NaCl, 5% glycerol, 1% NP-40, 1 mM DTT; 2 h at 4°C; Western blot
GST-tagged NME1 = GST-tagged NME1 (UniProt P15531); test: pull-down; 1 μg GST-NME1 (or GST) on glutathione agarose beads, 1 μg recombinant full-length RelA added, without or with 1 μM annealed κB or mutant κB DNA; 25 mM Tris-HCl pH 7.5, 150 mM NaCl, 5% glycerol, 0.1% NP-40, 1 mM DTT; 2 h at 4°C; Western blot; both purified

binding (FLAG-tagged NME1) | binding (GST-tagged NME1) | Substance
binds |  | HA-tagged RelA (from UniProt Q04207 1-549)
 | binds weakly | His-tagged full-length RelA (from UniProt Q04207 1-549)
